Laboratory results taken from PubChem BioAssay AID540256 (National Center for Advancing Translational Sciences (NCATS), 2011).
“And” between values parts separate entries of the source, which are not always exact repeats. Equal entries are not always repeated. Out of some 300,000 compounds screened, about 3,700 (1.2%) were called active. This list was built around the results that the source calls inconclusive (neither active nor inactive); the mix of calls is not that of the screen. The call rests on the fitted dose curve; tested in HEK293 cells. Potencies beside an inconclusive call are fits to weak or partial responses and may not hold up.

Assay: qHTS for Inhibitors of binding or entry into cells for Lassa Virus; further: nearly all actives have a fitted effect of over 50% in size
Details: Lassa virus pseudotype entry inhibition, cell reporter; activity change, negative = inhibition: at 37.9 µM (top of the series) unless noted
On the % scale 0 is the no-effect control and ±100 the full control effect; potency means the concentration at half of the fitted maximal effect.

Which “activity change, negative = inhibition” value does the source give for `C/C(=N\NC(=O)c1cccc(O)c1)c1ccc(NC(=O)Cc2ccccc2)cc1` here?
The value was inactive: 8.98%.

With `Nc1c2c(=O)[nH]c(O)cc2nn1-c1ccccc1` as the compound, how does the Potency read?
The Potency was inconclusive: 22.4 µM [inhibitor, single point].

With `CC(=O)NC(Cc1c[nH]c2ccccc12)C(=O)NCc1ccco1` (stereo not given) as the compound, how does the activity change, negative = inhibition read?
Its activity change, negative = inhibition is inconclusive: 8.65% [activator].

For `Cc1cccc2nc(CSc3nc4cc([N+](=O)[O-])ccc4s3)cn12`, which Potency is on record?
The Potency was inconclusive: 7.08 µM [activator, single point].

Which Potency does the source give for `CCOc1ccc(NC(=O)Cn2ccn3nc(-c4ccc(OC)c(OC)c4)cc3c2=O)cc1` here?
Its Potency is inconclusive: 35.5 µM [activator, single point].

For `Oc1ccc(Cl)cc1/C=N/c1nc2ccccc2[nH]1`, which “activity change, negative = inhibition” value is on record?
The value was inactive: -23.6% [at 14.3 µM].

Which Potency does the source give for `Cc1c(C(=O)C(=O)N2c3ccc(F)cc3CCC2C)c2ccccc2n1C` (stereo not given) here?
The Potency was inconclusive: 2 µM [inhibitor, partial curve].

Which Potency does the source give for `Cc1ccccc1NC(=O)Cc1nc(COC(=O)c2ccc(O)cc2O)cs1` here?
The Potency was inconclusive: 14.1 µM [inhibitor, single point].

Which Potency does the source give for `COc1cccc(Oc2nc(C)nc3c2oc2ccccc23)c1` here?
The Potency was inconclusive: 11.2 µM [inhibitor, partial curve].

For `Cc1cc(N/N=C/c2ccncc2)nc2ccccc12`, which Potency is on record?
The Potency was inconclusive: 0.651 µM [activator, partial curve, poor fit].

Which Potency does the source give for `O=C(Cn1c(=O)n(Cc2ccccc2)c(=O)c2sc3ccccc3c21)Nc1ccccc1F` here?
The Potency was inconclusive: 35.5 µM [activator, single point].

With `O=C(Nc1ccc2c(c1)CCCN2C(=O)c1cccs1)c1ccccc1` as the compound, how does the Potency read?
Its Potency is inconclusive: 1.41 µM [inhibitor, full curve, poor fit] and inconclusive: 2.51 µM [inhibitor, full curve, poor fit].

With `Cc1c(/C=N/NC(=O)CNc2ccccc2)c2ccccn2c1C(=O)c1ccc(Cl)cc1` as the compound, how does the Potency read?
The Potency was inconclusive: 12.6 µM [inhibitor, single point].

Which Potency does the source give for `O=C(Nc1ccc(OCC(=O)N2CCOCC2)cc1)c1ccccc1Cl` here?
Its Potency is inconclusive: 11.2 µM [inhibitor, partial curve, poor fit].

With `COc1ccc(S(=O)(=O)N(C)CC(=O)NCc2cccnc2)cc1` as the compound, how does the “activity change, negative = inhibition” value read?
The value was inactive: 0%.

With `COc1ccccc1NC(=S)NCC1CCCCC1` as the compound, how does the “activity change, negative = inhibition” value read?
Its value is inactive: 2.51%.

Which “activity change, negative = inhibition” value does the source give for `O=C(NCc1ccccc1)c1cccc(Br)n1` here?
The value was inactive: 9.36%.

With `COC(=O)c1ccc(NC(=S)NCCC2=CCCCC2)cc1` as the compound, how does the “activity change, negative = inhibition” value read?
The value was inactive: 9.95%.

With `COc1ccc2[nH]c(C)c(C(=O)CN3CCc4cc(OC)c(OC)cc4C3)c2c1` as the compound, how does the “activity change, negative = inhibition” value read?
Its value is inactive: 11.7%.

With `Cc1ccc(-n2c3nc(=O)[nH]c(=O)c-3cc3c(C)nn(-c4ccccc4)c32)cc1C` as the compound, how does the “activity change, negative = inhibition” value read?
The value was inactive: -18.1% [at 46.1 µM].

With `Cc1cccc(/C=N/n2c(-c3cc(-c4ccccc4)n[nH]3)n[nH]c2=S)c1` as the compound, how does the Potency read?
The Potency was inconclusive: 10 µM [inhibitor, partial curve, poor fit].

Which “activity change, negative = inhibition” value does the source give for `CCOc1ccc(NC(=O)Nc2cccnc2)cc1` here?
The value was inactive: 2.62%.

With `CCC(c1nnnn1Cc1cccs1)N1CCN(c2nc3ccccc3s2)CC1` (stereo not given) as the compound, how does the “activity change, negative = inhibition” value read?
The value was inactive: -13.9%.

Which Potency does the source give for `O=C(c1ccc(Cl)cc1)c1c[nH]c(C(=O)NNc2ccccc2)c1` here?
Its Potency is active: 14.1 µM.

With `CCC(=O)NNC(=O)CCC(=O)Nc1ccc(C)cc1C` as the compound, how does the Potency read?
The Potency was inconclusive: 1 µM [inhibitor, full curve, poor fit].

Which “activity change, negative = inhibition” value does the source give for `Cc1c(C(=O)OC(C)C)sc(NC(=O)C2c3ccccc3Oc3ccccc32)c1C(=O)OC(C)C` here?
Its value is inactive: -20.6% [at 46.1 µM].

With `COCCNC(=O)c1cccc(NC(=O)C2=C(C)OCCS2)c1` as the compound, how does the “activity change, negative = inhibition” value read?
The value was inactive: -3.05% [at 46.1 µM].

Which “activity change, negative = inhibition” value does the source give for `O=C(NCc1cccnc1)c1nc(-c2ccc(C(F)(F)F)cc2)no1` here?
The value was inactive: -9.41%.

For `C[C@@H]1[C@@H](c2ccccc2)Oc2c(Cl)cccc2S(=O)(=O)N1Cc1cccc(Cl)c1`, which Potency is on record?
The Potency was inconclusive: 3.15 µM [activator, single point].

For `O=C(c1cccc2ccccc12)C1CCCN(C2CCC2)C1` (stereo not given), which Potency is on record?
Its Potency is inconclusive: 3.55 µM [inhibitor, partial curve, poor fit].

Which Potency does the source give for `O=S(=O)(O)c1ccc2c(c1)C(C(Cl)(Cl)Cl)OC(C(Cl)(Cl)Cl)O2` (stereo not given) here?
The Potency was inconclusive: 12.6 µM [activator, single point].

Which Potency does the source give for `CCOC(=O)C(C)Sc1nc2c([nH]c3ccccc32)c(=O)n1C` (stereo not given) here?
Its Potency is inconclusive: 29.1 µM [inhibitor, single point].

For `Cc1nnc(SCC(=O)Nc2c(C)n(C)n(-c3ccccc3)c2=O)n1Cc1ccccc1`, which Potency is on record?
Its Potency is inconclusive: 0.316 µM [inhibitor, full curve, poor fit].

For `CCc1ccc(NC(=O)c2ccc(F)c(S(=O)(=O)N3CCN(c4ccc(OC)cc4)CC3)c2)cc1`, which Potency is on record?
The Potency was inconclusive: 0.794 µM [inhibitor, full curve, poor fit].

Which Potency does the source give for `COc1cccc(N2CCN(C(=O)c3ccc(CS(=O)Cc4ccccc4Cl)o3)CC2)c1` (stereo not given) here?
The Potency was inconclusive: 3.55 µM [inhibitor, partial curve, poor fit].

For `O=[N+]([O-])c1c(NCCCO)cc(SCc2ccco2)c2nonc12`, which “activity change, negative = inhibition” value is on record?
Its value is inactive: 0.354%.

For `COC(=O)c1ccc(-c2noc(CN(C)CC3CCCCO3)n2)cc1` (stereo not given), which “activity change, negative = inhibition” value is on record?
The value was inactive: -10.1% [at 46.1 µM].

Which “activity change, negative = inhibition” value does the source give for `COc1ccc(NC(=O)Cn2cc(C(=O)c3ccccc3)c(=O)c3cc(OC)ccc32)c(OC)c1` here?
Its value is inactive: 0.638% [at 46.1 µM].

With `O=C(O)CCC(=O)Nc1sc2c(c1C(=O)Nc1ccccc1)CCCCC2` as the compound, how does the Potency read?
Its Potency is “inactive and inconclusive: 35.5 µM [inhibitor, single point]”.

For `CC1(C)CC(=O)c2cc(C#N)c(=O)n(-c3ccc(Cl)cc3)c2C1`, which “activity change, negative = inhibition” value is on record?
Its value is inactive: 27.4% [at 46.1 µM].

With `Cc1ccc(C2CC2C(=O)NNC(=S)Nc2ccc(Cl)cc2)cc1` (stereo not given) as the compound, how does the Potency read?
The Potency was inconclusive: 29.1 µM [inhibitor, single point].

With `COc1ccc(-c2cc(C3CC3)nc3sc(C#N)c(N)c23)cc1` as the compound, how does the Potency read?
The Potency was inconclusive: 11.2 µM [inhibitor, partial curve, poor fit].

Which Potency does the source give for `CCNC(=O)CN(CCc1ccccc1)S(C)(=O)=O` here?
The Potency was inconclusive: 6.31 µM [inhibitor, partial curve, poor fit].

For `CCCOc1nc(N)c(C#N)c(-c2ccccc2F)c1C#N`, which activity change, negative = inhibition is on record?
Its activity change, negative = inhibition is inconclusive: 4.45% [activator].

For `Cc1cccc(-c2nnc(SCC(=O)N3CCCC3)o2)c1`, which “activity change, negative = inhibition” value is on record?
Its value is inactive: 26.1% [at 46.1 µM].
